The supplement of paper PMC12067093, “Discovery and optimisation of a covalent ligand for TRIM25 and its application to targeted protein ubiquitination” (Chemical Science, 2025)
The list shows a part of the results.

Compound: CC1Cc2ccccc2N1C(=O)C1CCCN(C1)C(=O)CCl (mixture of isomers) [TRIM25 ligand 11 (diastereomer mixture)]
Assay: probe-labelled cysteine peptide fold change vs DMSO (competition) (log2 fold change); higher = less target engagement (more negative = stronger competition)
Details: THP-1, incubation time: 4 h
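Further: competitive chemoproteomic profiling in live THP-1 cells with an iodoacetamide desthiobiotin (IA-DTB) probe, comparing probe-labelled peptide intensities in compound-treated cells against DMSO-treated controls.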

Target	probe-labelled cysteine peptide fold change (10 µM)	probe-labelled cysteine peptide fold change (50 µM)
PSTPIP2_Q9H939_221_ACEAFEAQECER (UniProt Q9H939)	0.0835	-0.071
PSMD13_Q9UNM6_276_KIQLLCLMEMTFTRPANHR (UniProt Q9UNM6)	-0.293	0.0022
PTRHD1_Q6GMV3_52_DLSQAPFSWPAGALVAQACHAATAALHTHR (UniProt Q6GMV3)	-0.0302	0.0238
PTPN23_Q9H3S7_697_TQSTCQAR (UniProt Q9H3S7)	0.0073	0.0343
PTK2B_Q14289_352_TSSLAEAENMADLIDGYCR (UniProt Q14289)	-0.0364	0.189
PTRH2_Q9Y3E5_111_QWEYCGQPK (UniProt Q9Y3E5)	-0.0453	-0.0023
PSMD13_Q9UNM6_182_FLGCVDIK (UniProt Q9UNM6)	-0.0427	-0.0771
PUM1_Q14671_1102_AVLIDEVCTMNDGPHSALYTMMK (UniProt Q14671)	-0.292	-0.179
PSMC1_P62191_399_AICTEAGLMALR (UniProt P62191)	-0.00256	0.102
PSMD1_Q99460_378_NSVCHTATVIANSFMHCGTTSDQFLRDNLEWLAR (UniProt Q99460)	0.0156	-0.0957
PTPN6_P29350_171_VMCEGGR (UniProt P29350)	0.0886	0.0269
PTRH1_Q86Y79_72_DRHCAADLALAPLGDAQLVLLRPR (UniProt Q86Y79)	0.0314	0.0315
PSME1_Q06323_101_KKGEDEDKGPPCGPVNCNEK (UniProt Q06323)	-0.56	-0.596
PTPN7_P35236_324_ARGEVDILGIVCQLR (UniProt P35236)	0.0606	0.0622
PSTPIP1_O43586_148_CRDADDAEQAFER (UniProt O43586)	-0.0494	0.222
PSMA6_P60900_47_GKDCAVIVTQK (UniProt P60900)	-0.471	-0.33
PTK2B_Q14289_180_VSEGMALQLGCLELRR (UniProt Q14289)	-0.333	0.0668
PTPN9_P43378_338_YGDVPCLDQTR (UniProt P43378)	-0.123	-0.155

Target	probe-labelled cysteine peptide fold change (10 µM)	probe-labelled cysteine peptide fold change (50 µM)
PSMC6_P62333_193_AVASQLDCNFLK (UniProt P62333)	-0.0838	-0.21
PSMD12_O00232_109_MVQQCCTYVEEITDLPIK (UniProt O00232)	0.0201	-0.00902
PSMA4_P25789_115_YLLQYQEPIPCEQLVTALCDIK (UniProt P25789)	0.135	0.195
PTRH1_Q86Y79_179_VGIGRPAHPEAVQAHVLGCFSPAEQELLPLLLDR (UniProt Q86Y79)	-0.0974	0.0397
PTPRE_P23469_186_VILSQLDGIPCSDYINASYIDGYK (UniProt P23469)	-0.324	-0.207
PTRHD1_Q6GMV3_118_NIDHMLWLEQPENIATCIALRPYPK (UniProt Q6GMV3)	-0.291	-0.258
PSMD8_P48556_173_CYYFDYK (UniProt P48556)	0.391	0.367
PSME3_P61289_92_RRLDECEEAFQGTK (UniProt P61289)	0.0191	-0.00482
PUF60_Q9UHX1_487_DIDDDLEGEVTEECGK (UniProt Q9UHX1)	-0.0171	0.0587
PSMD13_Q9UNM6_276_IQLLCLMEMTFTRPANHR (UniProt Q9UNM6)	-0.105	-0.0056
PSPH_P78330_187_IIMIGDGATDMEACPPADAFIGFGGNVIR (UniProt P78330)	0.401	0.168
PSMB2_P49721_46_ILLLCVGEAGDTVQFAEYIQK (UniProt P49721)	-0.0992	0.312
PTK2B_Q14289_61_CTVQTEIR (UniProt Q14289)	0.115	0.123
PTDSS1_P48651_153_EADVMEYAVNCHVITWER (UniProt P48651)	0.164	0.262
PTPRJ_Q12913_1039_QQADSNCGFAEEYEDLK (UniProt Q12913)	0.0747	-0.0752
PTK2B_Q14289_562_NILVASPECVK (UniProt Q14289)	-0.0586	-0.123
PSMD7_P51665_116_YCPNSVLVIIDVKPK (UniProt P51665)	-0.0584	-0.125

Given field by field: part of the list above.
PSPH_P78330_187_IIMIGDGATDMEACPPADAFIGFGGNVIR (UniProt P78330)
  probe-labelled cysteine peptide fold change (10 µM): 0.401
  probe-labelled cysteine peptide fold change (50 µM): 0.168
PTK2B_Q14289_562_NILVASPECVK (UniProt Q14289)
  probe-labelled cysteine peptide fold change (10 µM): -0.0586
  probe-labelled cysteine peptide fold change (50 µM): -0.123
